Data as given in the supplement of paper PMC8166895.
Structures can show the parent of a compound that is named as a salt. The list shows a part of the results. Most values lie at the level of the controls, where differences are scatter.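 Differential scanning fluorimetry gave melting temperatures in a one-replicate pilot screen of a library of approved drugs plus clinical or known-target compounds. Hits increasing melting point at least 2 °C were the strongest stabilizers, while negative shifts signify destabilization.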 Where a SMILES comes first, the peptide text is derived from it. The star is where a group is joined. Cbz = O=C(OCc1ccccc1)*

system: SARS-CoV-2 main protease (Mpro, nsp5); experiment: thermal shift ΔTm of Mpro relative to plate average Tm; higher = stronger thermal stabilization of Mpro (binding); conditions: 10 µM; protein concentration 1 µM

SMILES	thermal shift ΔTm of Mpro [°C]
COc1ccc(NS(=O)(=O)c2ccc(N)cc2)nn1 [Sulfamethoxypyridazine]	-0.0912
Nc1ccc(C(=O)NCC(=O)O)cc1 [Sodium 4-aminohippurate Hydrate]	-0.225
Nc1ccc(C(=O)NCC(=O)O)cc1 [4-Aminohippuric Acid]	-0.0637
OC[C@H]1O[C@@H](Oc2ccc(O)cc2)[C@H](O)[C@@H](O)[C@@H]1O [Arbutin]	-0.174
O=C(c1ccc(C(=O)N2CCC(N3CCCC3)CC2)c(Nc2ccccc2)c1)N1CCC(N2CCCC2)CC1	-0.0943
O=C(c1ccc(NS(=O)(=O)c2cccc3cccnc23)cc1)N1CCN(CC2CC2)CC1 [Mitapivat]	0.136
Nc1ccc(S(=O)(=O)c2ccc(N)cc2)cc1 [Sulphadione]	-0.0164
CN(C)CCc1c[nH]c2ccc(Cn3cncn3)cc12 [Rizatriptan Benzoate]	7.83e-05
CCC(CC)Nc1cc(C)nc(Oc2c(C)cc(C)cc2C)c1C	-0.127
Oc1cc(Cl)ccc1Oc1ccc(Cl)cc1Cl [Triclosan]	0.112
CN(C)c1ccc(C(c2ccc(N(C)C)cc2)c2cc([N+](=O)[O-])ccc2Cl)cc1	0.00341
CC(C)C[C@@H](C=O)NC(=O)[C@H](CC(C)C)NC(=O)[C@H](CC(C)C)NC(=O)OCc1ccccc1 (Cbz-Leu-Leu-Leu-aldehyde)	2.7
COc1ccc(-c2nc(NS(=O)(=O)c3ccc(C(C)(C)C)cc3)c(Oc3ccccc3OC)c(OC[C@H](O)CO)n2)cc1	-0.26
CCOC(=O)c1ccc(OCCC2CCN(c3ccc(C)nn3)CC2)cc1 [Pirodavir]	-0.0956
N=C(N)NC(=N)N1CCOCC1 [Moroxydine HCl]	0.0844
O=C(Nc1ncc([N+](=O)[O-])s1)c1ccccc1O [Tizoxanide]	0.266
CC(C)(C#N)c1ccc(N2C(=O)OCc3cnc4ccc(-c5cnc6ccccc6c5)cc4c32)cc1	-0.0454
CCN(CC)Cc1ccc2cc(COC(=O)Nc3ccc(C(=O)NO)cc3)ccc2c1 [Givinostat (ITF2357)]	-0.188
CC(=O)Oc1cccc2c1C(=O)c1c(OC(C)=O)cc(C(=O)O)cc1C2=O [Diacerein]	-0.0708
CCn1cc(C(=O)O)c(=O)c2cnc(N3CCNCC3)nc21 [Pipemidic acid]	0.15
COc1cc2c(cc1OC)/C(=C/c1ccc(O)cc1)C(=O)N2	-0.0568
O=C(Nc1cc(C(F)(F)F)ccc1N1CCCCC1)c1ccncc1	-0.0226
CCCCS(=O)(=O)N[C@@H](Cc1ccc(OCCCCC2CCNCC2)cc1)C(=O)O [Tirofiban hydrochloride monohydrate]	0.335
CNCCN1CCC(OCc2ccccc2)CC1	0.293
COc1nc(C)nc(Cl)c1NC1=NCCN1 [Moxonidine]	0.0676
C[C@](O)(COc1ccc(C#N)cc1)C(=O)Nc1ccc(C#N)c(C(F)(F)F)c1	0.0235

SMILES	thermal shift ΔTm of Mpro [°C]
Cc1ccc(NC(=O)c2ccc(CN3CCN(C)CC3)cc2)cc1Nc1nc(-c2cccnc2)cs1 [Masitinib (AB1010)]	0.072
COc1ccc(OC)c(CN(C(C)=O)c2cc(F)ccc2Oc2ccccc2)c1	0.0235
CCC(C)C(C(=O)OCC[N+](C)(CC)CC)c1ccccc1 (stereo not drawn) [Valethamate bromide]	0.104
Cc1ccc(S(=O)(=O)NC(=O)NN2CC3CCCC3C2)cc1 (stereo not drawn) [Gliclazide]	-0.104
CC1(C)S[C@@H]2[C@H](NC(=O)Cc3ccccc3)C(=O)N2[C@H]1C(=O)O.CCN(CC)CCOC(=O)c1ccc(N)cc1 [Procaine penicillin G]	0.209
O=c1c(O)c(-c2cc(O)c(O)c(O)c2)oc2cc(O)cc(O)c12 [Myricetin]	-0.39
Cc1cc(Cn2cnc3c2CC(C(=O)O)N(C(=O)C(c2ccccc2)c2ccccc2)C3)ccc1N(C)C (stereo not drawn)	-0.00692
C#CCN(C)Cc1ccccc1 [Pargyline]	0.0983
CN(C)c1ccc(C(=O)NCCCCCCC(=O)NO)cc1	0.0568
CCCCCC(C)N (stereo not drawn) [2-Aminoheptane]	0.149
CCCCCc1ccc(C)cc1O [Amylmetacresol]	-0.00519
COc1ccc2cc(CCC(C)=O)ccc2c1 [Nabumetone]	-0.0191
COc1ccc(-c2oc3c(CC=C(C)C)c(O[C@@H]4O[C@H](CO)[C@@H](O)[C@H](O)[C@H]4O)cc(O)c3c(=O)c2O[C@@H]2O[C@@H](C)[C@H](O)[C@@H](O)[C@H]2O)cc1 [Icariin]	-0.209
C[C@H]1[C@@H](O)O[C@@H]2O[C@@]3(C)CC[C@H]4[C@H](C)CC[C@@H]1[C@@]24OO3 [Dihydroartemisinin (DHA)]	-0.181
O=C(Nc1nc2ccc3scnc3c2s1)c1ccc2ccccc2c1	-0.121
CCO[C@@H]1OC(=O)C[C@@H]1NC(=O)[C@@H]1CCCN1C(=O)[C@@H](NC(=O)c1ccc(N)c(Cl)c1)C(C)(C)C	-0.0535
O=C(CCCN1CC=C(n2c(=O)[nH]c3ccccc32)CC1)c1ccc(F)cc1 [Droperidol]	-0.17
O=C(COCC(=O)Nc1ccc(Cl)cc1C(=O)O)Nc1cccc(-c2ccoc2)c1	0.0883
C[C@H](NC(c1cccc2[nH]c(=O)c(=O)[nH]c12)P(=O)(O)O)c1ccc(Br)cc1 (stereo partly drawn)	0.0719
Fc1cccc2ccccc12 [Fluoronaphthalene]	0.243
Oc1c(I)cc(I)c2cccnc12 [Iodoquinol]	0.486
CC(=O)O[C@H]1C[C@H](O[C@H]2[C@@H](O)C[C@H](O[C@H]3[C@@H](O)C[C@H](O[C@H]4CC[C@@]5(C)[C@H](CC[C@@H]6[C@@H]5C[C@@H](O)[C@]5(C)[C@@H](C7=CC(=O)OC7)CC[C@]65O)C4)O[C@@H]3C)O[C@@H]2C)O[C@H](C)[C@H]1O[C@@H]1O[C@H](CO)[C@@H](O)[C@H](O)[C@H]1O [Lanatoside C]	0.109
CC(C)N1CCN(c2ccc(OCC3COC(Cn4cncn4)(c4ccc(Cl)cc4Cl)O3)cc2)CC1 (stereo not drawn) [Terconazole]	-0.149
CC(=O)Nc1ccc(OC[C@](C)(O)C(=O)Nc2ccc([N+](=O)[O-])c(C(F)(F)F)c2)cc1 [Andarine]	-0.133
Cc1nc(Nc2ccc(F)cc2)nc(N2CCc3ccccc3C2C)c1C (stereo not drawn) [Revaprazan hydrochloride]	-0.183
COc1ccc(CCN2CCC(Nc3nc4ccccc4n3Cc3ccc(F)cc3)CC2)cc1 [Astemizole]	-0.00474

SMILES	thermal shift ΔTm of Mpro [°C]
CCN(Cc1ccncc1)C(=O)C(CO)c1ccccc1 (stereo not drawn) [Tropicamide]	0.0833
CCN(CC)CC#CCOC(=O)C(O)(c1ccccc1)C1CCCCC1 (stereo not drawn) [Oxybutynin]	0.0222
CCN(CC)CC#CCOC(=O)C(O)(c1ccccc1)C1CCCCC1 (stereo not drawn) [Oxybutynin chloride]	-0.0342
Cc1ncc([N+](=O)[O-])n1CCO [Metronidazole]	0.083
O=C(Cc1cccc(OC(F)(F)F)c1)Nc1ccc(CCCCc2nnc(NC(=O)Cc3ccccn3)s2)nn1	0.0792
O=S(=O)(CCC(F)=C(F)F)c1ncc(Cl)s1 [Fluensulfone]	-0.0145
CC(=O)O/N=C1\C(=O)N(Cc2cc(Cl)ccc2Cl)c2ccc(Cl)cc21	0.209
COc1ccc(COc2ccc(Cc3cnc(N)nc3N)cc2OC)cc1	-0.071
Cc1cc([N+](=O)[O-])ccc1NS(=O)(=O)c1cc(Cl)ccc1Cl	0.986
CCN(CC)C(=O)Cc1csc(NS(=O)(=O)c2cccc(Cl)c2C)n1	-0.0242
O=C(O)CCNc1cc(N2CCc3ccccc3CC2)nc(-c2ccccn2)n1	-0.232
COc1cnc(-n2cnc(C)n2)c2c1c(C(=O)C(=O)N1CCN(C(=O)c3ccccc3)CC1)cn2COP(=O)(O)O [Fostemsavir]	-0.0843
C=CC[C@@H]1/C=C(\C)C[C@H](C)C[C@H](OC)[C@H]2O[C@@](O)(C(=O)C(=O)N3CCCC[C@H]3C(=O)O[C@H](/C(C)=C/[C@@H]3CC[C@@H](O)[C@H](OC)C3)[C@H](C)[C@@H](O)CC1=O)[C@H](C)C[C@@H]2OC [Tacrolimus (FK506)]	-0.144
CN(C)Cc1cccc(N=C(c2ccccc2)c2c(O)[nH]c3cc(C(N)=O)ccc23)c1	-0.0811
O=C(N/N=C/c1ccc(O)c(O)c1)c1cc2ccccc2cc1O [Dynasore]	0.849
Cc1ccc(C(=O)c2cc(O)c(O)c([N+](=O)[O-])c2)cc1 [Tolcapone]	0.887
CC(C)(C)[Si](C)(C)Oc1ccc2oc(=O)c3c(c2c1)CCCN3	-0.0127
O=C([O-])c1ccccc1O.[Na+] [Sodium salicylate]	0.068
COc1ccc2[nH]cc(CCNC(C)=O)c2c1 [Melatonin]	0.184
Nc1nc(F)nc2c1ncn2[C@@H]1O[C@H](CO)[C@@H](O)[C@@H]1O [Fludarabine]	0.671
CC(=O)N1c2ccc(-c3ccc(C(=O)O)cc3)cc2[C@H](Nc2ccc(Cl)cc2)C[C@@H]1C	-0.273
CC[C@H]1OC(=O)[C@H](C)[C@@H](O[C@H]2C[C@@](C)(OC)[C@@H](O)[C@H](C)O2)[C@H](C)[C@@H](O[C@@H]2O[C@H](C)C[C@H](N(C)C)[C@H]2O)[C@](C)(O)C[C@@H](C)/C(=N\OCOCCOC)[C@H](C)[C@@H](O)[C@]1(C)O [Roxithromycin]	0.0857
CC(=O)c1cnc2ccc(-c3cc(Cl)c(O)c(Cl)c3)nc2c1N[C@H]1CC[C@H](CN(C)C)CC1	0.0382
O=C(O)c1ccc(Cl)cc1O [4-Chlorosalicylic acid]	0.169
C=C1CC[C@H](O)C/C1=C/C=C1\CCC[C@]2(C)[C@@H]([C@H](C)CCCC(C)(C)O)CC[C@@H]12 [Calcifediol]	0.00242
CC(C)CC(=O)Nc1n[nH]c2c1CN(C(=O)C1CCN(C)CC1)C2(C)C	0.557

Part of the list above, reformatted.

| SMILES | thermal shift ΔTm of Mpro [°C] |
| --- | --- |
| COc1cnc(-n2cnc(C)n2)c2c1c(C(=O)C(=O)N1CCN(C(=O)c3ccccc3)CC1)cn2COP(=O)(O)O [Fostemsavir] | -0.0843 |
| C=CC[C@@H]1/C=C(\C)C[C@H](C)C[C@H](OC)[C@H]2O[C@@](O)(C(=O)C(=O)N3CCCC[C@H]3C(=O)O[C@H](/C(C)=C/[C@@H]3CC[C@@H](O)[C@H](OC)C3)[C@H](C)[C@@H](O)CC1=O)[C@H](C)C[C@@H]2OC [Tacrolimus (FK506)] | -0.144 |
| CN(C)Cc1cccc(N=C(c2ccccc2)c2c(O)[nH]c3cc(C(N)=O)ccc23)c1 | -0.0811 |
